The structures given here were assigned with low confidence; some may be wrong.
Columns and labels:
Format in all cases: cell-based
A431 cells = experiment: Cellular proliferation (Alamar Blue) assay, A431; details: read-out: A431 IC50, 72 hr, tested form: TFA
[1] = target: EGFR (A767_dupASV) expressing Ba/F3 stable cell line (Homo sapiens, UniProt P00533, DUP767-769, cells depend on it); experiment: Cellular proliferation (Alamar Blue) assay, EGFR A767_dupASV Ba/F3; details: read-out: A767 IC50, 72 hr, tested form: TFA
[2] = target: EGFR(D770_N771insSVD) expressing Ba/F3 stable cell line (Homo sapiens, UniProt P00533, DUP768-770, cells depend on it); experiment: Cellular proliferation (Alamar Blue) assay, EGFR D770_N771insSVD Ba/F3; details: read-out: D770 IC50, 72 hr, tested form: TFA
[3] = target: HER2 (A775_G776insYVMA) expressing Ba/F3 stable cell line (Homo sapiens, UniProt P04626, DUP772-775, cells depend on it); experiment: Cellular proliferation (Alamar Blue) assay, HER2 A775_G776insYVMA Ba/F3; details: read-out: YVMA IC50, 72 hr, tested form: TFA

Protein sequences, listed by entry. Tags and fused reporters are not part of them. Chains listed by the source or under a name are the forms on record and can include a tag or linker.
UniProt P00533, with tags, fused parts or gaps DUP767-769: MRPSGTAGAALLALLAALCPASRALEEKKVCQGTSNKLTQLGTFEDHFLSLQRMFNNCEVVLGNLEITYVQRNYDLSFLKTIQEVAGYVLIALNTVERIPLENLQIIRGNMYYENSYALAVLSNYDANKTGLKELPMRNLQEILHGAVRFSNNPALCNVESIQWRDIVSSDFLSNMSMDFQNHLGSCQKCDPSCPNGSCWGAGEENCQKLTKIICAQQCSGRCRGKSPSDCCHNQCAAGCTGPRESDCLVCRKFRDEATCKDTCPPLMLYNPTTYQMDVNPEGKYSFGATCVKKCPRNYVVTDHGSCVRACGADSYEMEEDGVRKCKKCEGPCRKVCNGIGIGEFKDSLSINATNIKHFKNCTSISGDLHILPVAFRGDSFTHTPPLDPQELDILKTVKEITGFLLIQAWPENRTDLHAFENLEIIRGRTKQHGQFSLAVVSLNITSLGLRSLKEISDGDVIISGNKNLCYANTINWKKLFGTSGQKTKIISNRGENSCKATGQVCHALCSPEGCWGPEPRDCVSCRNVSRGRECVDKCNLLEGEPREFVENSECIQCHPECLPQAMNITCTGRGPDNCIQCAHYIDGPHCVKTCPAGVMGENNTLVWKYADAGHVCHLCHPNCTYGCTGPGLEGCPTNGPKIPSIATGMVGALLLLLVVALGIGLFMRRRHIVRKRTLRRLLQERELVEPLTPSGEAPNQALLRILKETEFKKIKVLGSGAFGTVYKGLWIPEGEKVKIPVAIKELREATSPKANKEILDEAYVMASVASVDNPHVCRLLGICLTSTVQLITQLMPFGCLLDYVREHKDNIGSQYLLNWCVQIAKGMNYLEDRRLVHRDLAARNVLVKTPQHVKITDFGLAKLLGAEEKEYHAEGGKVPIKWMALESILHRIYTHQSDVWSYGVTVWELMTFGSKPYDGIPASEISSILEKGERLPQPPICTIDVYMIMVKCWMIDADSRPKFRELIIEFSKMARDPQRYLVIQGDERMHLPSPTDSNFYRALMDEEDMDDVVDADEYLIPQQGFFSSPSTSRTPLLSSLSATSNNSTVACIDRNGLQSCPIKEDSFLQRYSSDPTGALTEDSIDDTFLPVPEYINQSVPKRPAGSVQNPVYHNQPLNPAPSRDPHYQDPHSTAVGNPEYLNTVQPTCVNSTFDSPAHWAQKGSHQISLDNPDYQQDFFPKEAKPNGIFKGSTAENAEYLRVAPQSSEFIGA
UniProt P00533, with tags, fused parts or gaps DUP768-770: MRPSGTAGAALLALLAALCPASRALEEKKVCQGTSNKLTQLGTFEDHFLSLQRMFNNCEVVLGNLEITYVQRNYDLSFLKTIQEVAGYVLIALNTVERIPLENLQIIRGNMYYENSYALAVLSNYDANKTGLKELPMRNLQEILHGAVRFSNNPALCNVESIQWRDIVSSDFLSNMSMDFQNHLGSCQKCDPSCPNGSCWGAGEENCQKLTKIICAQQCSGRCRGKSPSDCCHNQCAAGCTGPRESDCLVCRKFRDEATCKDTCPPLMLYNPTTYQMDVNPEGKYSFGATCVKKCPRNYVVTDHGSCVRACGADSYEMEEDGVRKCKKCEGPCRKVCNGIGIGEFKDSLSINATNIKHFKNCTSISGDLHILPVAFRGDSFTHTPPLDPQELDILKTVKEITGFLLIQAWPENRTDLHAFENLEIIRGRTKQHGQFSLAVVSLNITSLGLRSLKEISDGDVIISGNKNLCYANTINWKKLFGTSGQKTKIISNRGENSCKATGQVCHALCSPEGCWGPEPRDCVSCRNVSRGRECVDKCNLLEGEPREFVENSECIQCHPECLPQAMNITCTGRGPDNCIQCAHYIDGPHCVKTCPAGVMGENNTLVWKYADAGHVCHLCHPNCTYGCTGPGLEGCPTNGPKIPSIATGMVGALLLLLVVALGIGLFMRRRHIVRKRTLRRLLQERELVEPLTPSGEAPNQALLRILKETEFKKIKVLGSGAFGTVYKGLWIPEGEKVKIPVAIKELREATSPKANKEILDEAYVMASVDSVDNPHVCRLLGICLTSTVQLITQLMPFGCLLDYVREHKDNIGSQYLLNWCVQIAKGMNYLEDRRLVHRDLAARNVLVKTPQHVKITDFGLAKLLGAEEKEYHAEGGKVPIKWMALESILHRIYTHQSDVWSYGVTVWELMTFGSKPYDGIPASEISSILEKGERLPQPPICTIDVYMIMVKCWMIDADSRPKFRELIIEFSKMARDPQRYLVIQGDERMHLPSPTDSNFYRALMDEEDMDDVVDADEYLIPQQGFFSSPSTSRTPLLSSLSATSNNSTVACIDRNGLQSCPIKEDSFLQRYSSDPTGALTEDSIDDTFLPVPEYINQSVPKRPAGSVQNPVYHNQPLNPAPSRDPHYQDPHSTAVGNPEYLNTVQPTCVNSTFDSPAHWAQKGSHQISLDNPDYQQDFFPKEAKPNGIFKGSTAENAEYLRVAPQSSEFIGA
UniProt P04626, with tags, fused parts or gaps DUP772-775: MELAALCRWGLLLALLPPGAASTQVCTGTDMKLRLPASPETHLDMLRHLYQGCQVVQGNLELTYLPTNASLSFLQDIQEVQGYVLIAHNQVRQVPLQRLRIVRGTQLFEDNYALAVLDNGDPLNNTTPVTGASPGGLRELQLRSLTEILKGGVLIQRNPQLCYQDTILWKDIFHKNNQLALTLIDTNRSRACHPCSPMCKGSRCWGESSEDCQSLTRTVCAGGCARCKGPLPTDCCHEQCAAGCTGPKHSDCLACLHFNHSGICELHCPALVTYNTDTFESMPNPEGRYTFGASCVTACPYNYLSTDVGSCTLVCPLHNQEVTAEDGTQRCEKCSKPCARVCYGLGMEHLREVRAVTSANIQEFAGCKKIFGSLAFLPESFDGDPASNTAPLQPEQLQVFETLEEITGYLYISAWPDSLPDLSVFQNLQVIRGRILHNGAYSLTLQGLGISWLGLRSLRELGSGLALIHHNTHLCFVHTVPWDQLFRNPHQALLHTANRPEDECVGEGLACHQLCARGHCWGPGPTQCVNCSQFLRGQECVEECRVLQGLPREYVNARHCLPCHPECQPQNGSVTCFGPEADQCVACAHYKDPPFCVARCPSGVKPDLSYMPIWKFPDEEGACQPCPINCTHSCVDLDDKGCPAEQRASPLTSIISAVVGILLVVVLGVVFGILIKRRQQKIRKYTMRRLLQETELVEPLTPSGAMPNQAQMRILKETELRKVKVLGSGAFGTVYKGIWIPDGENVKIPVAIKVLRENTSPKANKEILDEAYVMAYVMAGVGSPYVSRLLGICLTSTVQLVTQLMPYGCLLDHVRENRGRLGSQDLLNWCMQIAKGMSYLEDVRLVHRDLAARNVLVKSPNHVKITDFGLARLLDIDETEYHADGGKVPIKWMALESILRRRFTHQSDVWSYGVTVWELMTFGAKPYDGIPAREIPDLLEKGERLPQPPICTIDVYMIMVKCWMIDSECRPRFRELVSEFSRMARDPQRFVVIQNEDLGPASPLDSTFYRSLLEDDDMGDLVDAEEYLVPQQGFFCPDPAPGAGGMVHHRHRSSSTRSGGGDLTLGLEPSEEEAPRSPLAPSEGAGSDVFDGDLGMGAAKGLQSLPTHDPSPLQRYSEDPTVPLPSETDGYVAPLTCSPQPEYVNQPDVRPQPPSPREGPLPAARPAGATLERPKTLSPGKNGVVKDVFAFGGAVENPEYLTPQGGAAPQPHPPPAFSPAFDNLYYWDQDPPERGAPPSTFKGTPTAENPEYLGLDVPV

| Compound | IC50 (A431 cells) [nM] | GI50 [1] [nM] | GI50 [2] [nM] | GI50 [3] [nM] |
| --- | --- | --- | --- | --- |
| C=CC(=O)Nc1ccc(F)c(Nc2nc(Nc3cnn(CCOC)c3)ncc2-c2ccc(C(F)(F)F)cc2)c1 | 98 | 441 | 113 | – |
| C=CC(=O)Nc1ccc(F)c(Nc2nc(Nc3cnn(C)c3)ncc2-c2ccccc2Cl)c1 [Compound 150, N-(3-((5-(2-chlorophenyl)-2-((1-methyl-1H-pyrazol-4-yl)amino)pyrimidin-4-yl)amino)-4-fluorophenyl)acrylamide 2,2,2-trifluoroacetate] | – | – | – | 2140 |
